Assay: general procedure: Fmoc solid-phase peptide synthesis; Rink Amide MBHA resin (Novabiochem), 0.73 mmol/g
Details: whole synthesis, analytical HPLC, C18 column, 2-60% acetonitrile (0.1% TFA) over 30 minutes, scale of the general procedure 1.0 mmole (residues 18-36), 0.1 mmole (residues 1-17)

Row | Substance | final HPLC purity
1 | [Aib^11,17, 4Hyp^34, Lys^35-ψ(CH2—N(Ac))Tyr^36]hNPY(1-36)-NH2 | 99.9%
2 | [Aib^11,17, 4Hyp^34, Lys^35-ψ(CH2—NH)Tyr^36]hNPY(1-36)-NH2 | 99.9%
3 | [Aib^17, 4Hyp^34, Apc^35]hNPY(1-36)-NH2 | 99.9%
4 | [Aib^17, 4Hyp^34, Lys^35-ψ(CH2—NH)Tyr^36]hNPY(1-36)-NH2 | 99.9%

Reference: patent US8440611 (dated 2013)
